In patent US20190375846A1:
Positions count from the first letter of the chain named. These are yes or no findings as the source states them, for the method shown. Some binding calls cover weakened binding; strength is not graded here. Sequences can lack the tags named with a protein.

T1: human GITR-Fc (human) (UniProt Q9Y5U5)
T1 sequence (looked up): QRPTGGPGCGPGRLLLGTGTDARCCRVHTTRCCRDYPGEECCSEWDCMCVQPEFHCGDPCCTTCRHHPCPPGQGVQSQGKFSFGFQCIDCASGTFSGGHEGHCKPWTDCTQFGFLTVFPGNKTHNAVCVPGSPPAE

B1: G_G10 scFv (scFv, V domains shown)
VH: EVQLVESGGGLVQPGGSLRLSCAASGFSLSTFGYGVGWVRQAPGKGLEWLAHIWWDDDKYYVDSVKGRFTISRDNAKNSLYLQMNSLRAEDTAVYYCARTRQYFPFAYWGQGTLVTVSS
VL: EIVLTQSPATLSLSPGERATLSCRASQSVGTNLAWYQQKPGQAPRLLIYYASYRYTGIPARFSGSGSGTDFTLTISSLEPEDFAVYYCQQYSNDPLTFGGGTKVEIK
B2: G_A6 scFv (scFv, V domains shown)
VH: B1 VH with G33S, G37S, D57S, Q102M
VL: B1 VL with S28N, N32Y, Y50D
B3: C_B10 scFv (scFv, V domains shown)
VH: B1 VH with F32S, Y34M, V36M, G37S, T100N, Q102R
VL: B1 VL with S28N, T31S, Y50S, Y55A
B4: E_B10 scFv (scFv, V domains shown)
VH: B1 VH with F32S, G37S, D58E, T100N, Q102R
VL: B1 VL with Y50S, Y55A, T56S, N93T
B5: F_B11 scFv (scFv, V domains shown)
VH: B1 VH with F32S, Y34M, G37S, L50V, D58E, T100N, Q102R
VL: B1 VL with T31S, Y50S, Y55A, N93T
B6: J_C6 scFv (scFv, V domains shown)
VH: B1 VH with F32S, L50V
VL: B1 VL with T31S, L33V, Y50S, N93T
B7: E_C8 scFv (scFv, V domains shown)
VH: B1 VH with F32S, L50V, Q102R, F104Y
VL: B1 VL with N32Y, L33V, Y50S, Y55A, T56S, N93T, D94S
B8: E_G11 scFv (scFv, V domains shown)
VH: B1 VH with F32S, Y34M, G37S, D58E, T100N, Q102R
VL: B1 VL with S28N, L33V, Y50S, Y53N, Y55A
B9: C_A9 scFv (scFv, V domains shown)
VH: B1 VH with S28T, L29F, F32S, G33S, V36M, G37S, H52N, D58E, Q102M
VL: B1 VL with T31S, N32Y, Y50E, Y55A, T56S, S92N
B10: D_G11 scFv (scFv, V domains shown)
VH: B1 VH with F32S, G33S, Y34M, V36M, L50V, D58E, T100H, Q102I
VL: B1 VL with N32Y, L33V, Y50D, Y53N, T56S, N93T
B11: E_A1 scFv (scFv, V domains shown)
VH: B1 VH with S28T, F32S, Y34M, V36M, G37S, T100N, Q102R
VL: B1 VL with T31S, Y50S, Y55A, T56S
B12: E_D10 scFv (scFv, V domains shown)
VH: B1 VH with F32S, R101V, Q102R
VL: B1 VL with T31S, L33V, Y50S, Y53N, T56S, N93T
B13: H_G4 scFv (scFv, V domains shown)
VH: B1 VH with S28T, L29F, F32S, Y34M, V36M, G37S, L50V, D58E, T100N, Q102R
VL: B1 VL with S28N, T31S, L33V, Y50S, Y55A, N93T
B14: E_G3 scFv (scFv, V domains shown)
VH: B1 VH with F32S, H52N, T100A, Q102R
VL: B1 VL with S28N, N32Y, Y50S, Y55A, T56S, N93T, D94W
B15: C_B12 scFv (scFv, V domains shown)
VH: B1 VH with S28T, L29F, F32S, Y34M, G37S, L50V, D58E, T100N, Q102R
VL: B1 VL with T31S, L33V, Y50S, Y53N, N93T
B16: E_F10 scFv (scFv, V domains shown)
VH: B1 VH with F32S, L50V, H52N, T100G, Q102R
VL: B1 VL with S28N, T31S, N32Y, Y50S, S52Y, Y55A, S92N, N93T, D94W
B17: D_A11 scFv (scFv, V domains shown)
VH: B1 VH with S28T, F32S, Y34M, V36M, G37S, L50V, D58E, T100N, Q102R
VL: B1 VL with S28N, L33V, Y50S, Y55A, T56S, N93T
B18: D_B7 scFv (scFv, V domains shown)
VH: B1 VH with F32S, V36M
VL: B1 VL with S28N, L33V, Y50S, Y55A, T56S
B19: C_D10 scFv (scFv, V domains shown)
VH: B1 VH with F32S, Y34M, V36M, G37S, T100N, Q102R
VL: B1 VL with S28N, L33V, Y50D, N93T
B20: K_D6 scFv (scFv, V domains shown)
VH: B1 VH with F32S, Y34M, V36M, G37S, T100N, Q102R
VL: B1 VL with T31S, L33V, Y50S, Y55A, T56S
B21: H_G1 scFv (scFv, V domains shown)
VH: B1 VH with L29F, F32S, V36M, H52N, T100G, Q102R
VL: B1 VL with S28N, T31S, Y50S, Y55A, D94W
B22: H_C5 scFv (scFv, V domains shown)
VH: B1 VH with F32S, Y34M, V36M, G37S, L50V, D58E, T100N, Q102R
VL: B1 VL with L33V, Y50N, Y53N, Y55A, T56S, N93T
B23: F_F2 scFv (scFv, V domains shown)
VH: B1 VH with F32S, Y34M, V36M, G37S, L50V, D58E, T100N, Q102R
VL: B1 VL with T31S, Y50S, Y53N, Y55A, T56S, Q90H, N93T
B24: K_E12 scFv (scFv, V domains shown)
VH: B1 VH with S28T, F32S, Y34M, V36M, G37S, L50V, T100S, Q102R
VL: B1 VL with S28N, T31S, L33V, Y50S, Y55A, T56S, N93T

Target: T1, human GITR-Fc (human)
Assay: post-selection screening ELISA, scFv

Row | binding | Binder
1 | binds | B1
2 | binds | B2
3 | binds | B3
4 | binds | B4
5 | binds | B5
6 | binds | B6
7 | binds | B7
8 | binds | B8
9 | binds | B9
10 | binds | B10
11 | binds | B11
12 | binds | B12
13 | binds | B13
14 | binds | B14
15 | binds | B15
16 | binds | B16
17 | binds | B17
18 | binds | B18
19 | binds | B19
20 | binds | B20
21 | binds | B21
22 | binds | B22
23 | binds | B23
24 | binds | B24
